These results are taken from article PMC5827114, “A cryptic RNA-binding domain mediates Syncrip recognition and exosomal partitioning of miRNA targets”.

For the data set, the target named is T1, Syncrip eR1R2R3 (Homo sapiens) (UniProt O60506).
T1 sequence (looked up): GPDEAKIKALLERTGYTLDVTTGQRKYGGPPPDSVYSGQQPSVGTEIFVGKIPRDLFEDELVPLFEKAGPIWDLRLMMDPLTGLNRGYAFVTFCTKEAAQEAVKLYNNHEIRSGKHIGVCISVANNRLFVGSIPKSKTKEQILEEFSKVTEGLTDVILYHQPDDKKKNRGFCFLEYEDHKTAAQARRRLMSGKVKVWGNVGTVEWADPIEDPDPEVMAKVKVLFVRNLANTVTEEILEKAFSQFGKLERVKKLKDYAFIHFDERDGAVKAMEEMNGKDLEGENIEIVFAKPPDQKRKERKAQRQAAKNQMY
Nature of the data set: BLI. The note with it: BLI: 5 mM Tris-HCl pH 7.4, 50 mM NaCl, 1 mM TCEP, 0.5 mg/mL BSA, 30 C; recombinant protein; residues 118-428; protein details: His6-SUMO or His, removed by HRV 3C; label: 5'-biotin (BLI); scale: fold lower affinity than NeR1R2R3.

For at least one entry, the source does not settle the construct or the ends of the probe. The direction of at least one scale is not stated here. Tags and fusion partners may be left off the protein sequences shown.

On to “UCACUUUGUAGACCAGGCUGG [miR-3470 full-length]”, for which the binding signal was 6.
